# Results deposited as PubChem BioAssay AID652272 (Drosophila RNAi Screening Center, 2013)
# Purpose: 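Finding fly genes that regulate Hedgehog signal transduction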 (primary screen)
# Cell system: Drosophila clone 8 (Cl8) cells
# Reagents: long dsRNA against Drosophila genes
# Measurement: 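Firefly light from a Hedgehog-responsive ptc promoter reporter and Renilla reference light, both read on a plate reader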
# Reading the numbers: firefly Hh reporter signal: higher = more ptc reporter light; Renilla reference signal: higher = more Renilla control light
# Call rule: 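Called a hit if the two-replicate mean z-score lies below -2 or above +3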
# Meaning of the calls: active = hit: reporter lowered or raised; inactive = not a hit
# The screen tested about 21,000 reagents; below is an unselected part of those with a known target gene and a result. In the full data, 503 (2.4%) were called active. 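Raw plate light values, not normalised; calls rest on replicate z-scores that were not deposited; hits include reporter decreases as well as increases.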 A plus sign joins genes that one reagent is predicted to hit. No sequences are given here. Not given: the amount of reagent, the time to read-out.
gene,DRSC id,"firefly Hh reporter signal, replicate 1","firefly Hh reporter signal, replicate 2","firefly Hh reporter signal, replicate 3","Renilla reference signal, replicate 1","Renilla reference signal, replicate 2",activity call
CG17721 (GeneID 41354),DRSC15253,76688,1.20e5,,2656,3536,inactive
Cpr64Ad (GeneID 38511),DRSC08284,1.31e5,74581,,3900,4293,inactive
CG8435 (GeneID 36789),DRSC07179,77788,42884,,5120,3107,active
CG13048 (GeneID 39789),DRSC09929,1.00e5,,,4075,2915,inactive
sra (GeneID 47384),DRSC17015,1.39e5,65312,,5605,2546,inactive
CG9150 (GeneID 33856),DRSC03148,1.14e5,37308,,2681,3633,inactive
Ebp (GeneID 38009),DRSC04048,1.01e5,66009,,4644,3067,inactive
Mgtor (GeneID 36264),DRSC05958,73660,31763,,3568,1577,inactive
Hs6st (GeneID 42380),DRSC14348,5.98e5,1.25e5,,31319,3019,inactive
Hs6st (GeneID 42380),DRSC15182,9.37e5,2.16e5,,50915,5552,inactive
Hs6st (GeneID 42380),DRSC15581,9.60e5,7.03e5,1.98e5,54065,7688,inactive
CG2608 (GeneID 35323),DRSC02709,83312,42840,,2517,1552,inactive
Strn-Mlck (GeneID 36753),DRSC05032,71283,76914,,3945,3126,inactive
Strn-Mlck (GeneID 36753),DRSC05598,1.60e5,2.56e5,,4441,12293,inactive
Strn-Mlck (GeneID 36753),DRSC06571,1.02e5,60768,,2792,4508,inactive
Strn-Mlck (GeneID 36753),DRSC07471,67648,65475,,1874,4122,inactive
CG31952 (GeneID 326179),DRSC00428,1.51e5,1.45e5,,3229,9984,inactive
dpr2 (GeneID 3346227),DRSC02370,1.18e5,86458,,3353,6756,inactive
dpr2 (GeneID 3346227),DRSC02371,1.21e5,1.05e5,,2875,7035,inactive
CG3788 (GeneID 37644),DRSC04418,1.00e5,84346,,2764,7296,inactive
CG13442 (GeneID 37349),DRSC06402,79925,54676,,3160,3962,inactive
CG6403 (GeneID 43220),DRSC16033,1.20e5,1.22e5,,4949,3978,inactive
CG9701 (GeneID 39872),DRSC11093,94122,66233,,4339,2713,inactive
CG12054 (GeneID 43694),DRSC14467,24688,16500,,1062,913,active
CG15109 (GeneID 37195),DRSC06536,81248,58849,,1104,4240,inactive
RhoGAP68F (GeneID 39385),DRSC10717,71112,32276,,3437,1421,inactive
Rpt4 (GeneID 31567),DRSC18713,78816,38787,,6764,1776,active
CG12239 (GeneID 31509),DRSC17832,70533,1.00e5,,2192,2917,inactive
hpo (GeneID 37247),DRSC06065,93383,84512,,4251,3780,inactive
Or98b (GeneID 43375),DRSC16775,1.54e5,1.61e5,,3767,5045,inactive
CNT1 (GeneID 35915),DRSC06082,79996,40260,,1721,3882,inactive
CG11555 (GeneID 33193),DRSC00315,1.32e5,84480,,3463,2256,inactive
CG42784 (GeneID 326165),DRSC02534,1.37e5,1.37e5,,6041,4818,inactive
CG42784 (GeneID 326165),DRSC02535,83398,22368,,2214,2145,inactive
Pi3K21B (GeneID 33203),DRSC00771,71043,42452,,3237,2096,inactive
CG12935 (GeneID 36134),DRSC06248,78881,56659,,3733,2313,inactive
asRNA:CR43463 + Pgant35A,DRSC03557,1.78e5,5.01e5,59227,4613,28736,inactive
CG9389 (GeneID 40347),DRSC11857,60435,61028,,2512,2740,inactive
CG33296 (GeneID 2768941),DRSC00998,4.76e5,1.82e5,,22087,7638,inactive
CG42404 (GeneID 41842),DRSC15558,80003,86595,,3021,2410,inactive
CG8562 (GeneID 38828),DRSC10995,39136,42426,,6529,3429,inactive
CG13198 (GeneID 36245),DRSC06323,82137,41872,,1976,4027,inactive
CG13721 (GeneID 38556),DRSC08330,68658,62691,,6752,5356,inactive
CG14605 (GeneID 40867),DRSC12549,58425,81972,,2307,2298,inactive
CG32236 (GeneID 249170),DRSC08117,1.22e5,3.38e5,,3584,12770,inactive
CG5139 (GeneID 33309),DRSC00681,1.36e5,1.29e5,,3488,3504,inactive
stx (GeneID 32005),DRSC18442,45264,27385,,2989,1240,active
stx (GeneID 32005),DRSC18443,52272,1.10e5,,1644,4551,inactive
mRpL51 (GeneID 34186),DRSC02200,58675,1.03e5,,2320,3186,inactive
RpS24 (GeneID 37589),DRSC04414,50161,24345,,2656,4192,active
stv (GeneID 39518),DRSC09796,93012,88688,,3777,3738,inactive
stv (GeneID 39518),DRSC10111,47446,57389,57474,4184,4000,inactive
CG12986 (GeneID 32759),DRSC19506,1.30e5,2.48e5,,4950,10866,inactive
CG10919 (GeneID 40917),DRSC14283,62888,95648,,2338,2840,inactive
CG14395 (GeneID 41560),DRSC14852,60976,95546,,1920,2666,inactive
CG14644 (GeneID 40536),DRSC12230,1.04e5,1.36e5,,3699,24573,inactive
RFeSP (GeneID 44390),DRSC00702,1.59e5,1.03e5,,3177,2370,inactive

Reprinted from the listing for reference:
gene,DRSC id,"firefly Hh reporter signal, replicate 1","firefly Hh reporter signal, replicate 2","firefly Hh reporter signal, replicate 3","Renilla reference signal, replicate 1","Renilla reference signal, replicate 2",activity call
Strn-Mlck (GeneID 36753),DRSC07471,67648,65475,,1874,4122,inactive
CG31952 (GeneID 326179),DRSC00428,1.51e5,1.45e5,,3229,9984,inactive
dpr2 (GeneID 3346227),DRSC02370,1.18e5,86458,,3353,6756,inactive
dpr2 (GeneID 3346227),DRSC02371,1.21e5,1.05e5,,2875,7035,inactive
CG3788 (GeneID 37644),DRSC04418,1.00e5,84346,,2764,7296,inactive
